Experimental data as given in patent US20100069433A1, “PROPHYLACTIC AND/OR THERAPEUTIC AGENT FOR HYPERLIPIDEMIA” (KOWA COMPANY, LTD., priority 2007, published 2010).
For at least one compound, name, drawing or mass did not settle the structure.

Key:
[1] = system: blood glucose level; assay: Oral glucose tolerance test in Zucker fatty rats (Example 3); assay type: in vivo, Male Zucker fatty rats; settings: 28 days oral once a day, compound A 0.3 mg/kg, pitavastatin 3 mg/kg, fenofibrate 100 mg/kg
Protocol: As a method for examining diabetes mellitus, an oral glucose tolerance test, that is, a method in which a test subject fasted overnight is orally fed with a glucose solution, and blood is collected before and after the feeding, to examine the degree of increase in the blood glucose level, is widely performed. Thus, the Zucker fatty rat was used and administered with medicaments, and then an oral glucose tolerance test was performed to investigate the influence of the medicament of the present invention exerted on the blood glucose level. Male Zucker fatty rats (Crlj: ZUC-Lepr^fa, Japan Charles River Co. Ltd., 9 weeks old) were taken for the test. […] Additionally, when the pitavastatin was a hydrate as in the case of the present Example, the water content of a standard product was measured by a conventional method known to those ordinarily skilled in the art, and the amount required in the production of drug based on the water content of the “pitavastatin calcium hydrate” used in the present Example was calculated. […] The blood glucose level was measured by an enzymatic method. […] A risk rate of less than 5% was determined to have a significant difference.

[2] = system: plasma triglyceride concentration; settings: Zucker fatty rat; reported (Atherosclerosis 74, 15-21 (1988); 29, 269-275 (1978)); cited from earlier work
[3] = system: triglyceride concentration; settings: animal model used in Example 1; known; cited from earlier work
[4] = system: total plasma cholesterol concentration; settings: results of clinical trials; cited from earlier work

Row | Compound | change in blood glucose level over time after glucose loading (FIG. 3A) [1] | plasma triglyceride concentration lowering effect [2] | triglyceride concentration lowering effect [3] | rate of improvement in the total plasma cholesterol concentration [4] [%]
1 | CC(C)OC(=O)C(C)(C)Oc1ccc(C(=O)c2ccc(Cl)cc2)cc1 [Fenofibrate, fenofibrate] | rapid increases in the blood glucose level | did not show any lowering effect | known to show a triglyceride concentration lowering effect | 
2 | CCOC(=O)C(C)(C)Oc1ccc(Cl)cc1 [clofibrate] |  | did not show any lowering effect |  | 
3 | CC[C@H](C)C(=O)O[C@H]1C[C@H](O)C=C2C=C[C@H](C)[C@H](CC[C@@H](O)C[C@@H](O)CC(=O)O)[C@H]21 [pravastatin] |  |  |  | 68.6
